Measured values from PMC7504720.
No constants are given. Whether binding was seen depends on the method and setting. In cells and extracts the contact can be indirect. Some results given as binding are weak or reduced against the parent protein; the word gives no strength. For some of these results: Sequences can lack the tags named with a protein. One block for each molecule: values may come before it.

Chains of the proteins cited; added tags and fusions are not shown. Residues count along the entry.
UniProt Q9DBY1: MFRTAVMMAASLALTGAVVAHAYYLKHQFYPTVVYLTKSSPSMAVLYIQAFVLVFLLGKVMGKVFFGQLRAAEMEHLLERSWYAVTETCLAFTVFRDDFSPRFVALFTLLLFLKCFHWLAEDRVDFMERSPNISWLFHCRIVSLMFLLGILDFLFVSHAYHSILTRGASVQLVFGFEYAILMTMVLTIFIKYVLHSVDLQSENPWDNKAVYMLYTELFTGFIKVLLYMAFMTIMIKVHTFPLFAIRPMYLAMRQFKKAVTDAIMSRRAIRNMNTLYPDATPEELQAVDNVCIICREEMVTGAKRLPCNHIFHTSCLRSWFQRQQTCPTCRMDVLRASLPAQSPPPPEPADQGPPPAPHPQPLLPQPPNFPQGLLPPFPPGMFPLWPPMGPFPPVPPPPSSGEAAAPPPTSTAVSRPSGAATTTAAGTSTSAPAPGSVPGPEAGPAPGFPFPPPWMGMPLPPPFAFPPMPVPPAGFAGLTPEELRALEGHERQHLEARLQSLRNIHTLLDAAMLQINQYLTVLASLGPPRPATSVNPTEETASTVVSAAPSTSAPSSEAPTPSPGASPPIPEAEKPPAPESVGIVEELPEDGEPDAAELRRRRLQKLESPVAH
UniProt Q9Z2G6, residues 22-790: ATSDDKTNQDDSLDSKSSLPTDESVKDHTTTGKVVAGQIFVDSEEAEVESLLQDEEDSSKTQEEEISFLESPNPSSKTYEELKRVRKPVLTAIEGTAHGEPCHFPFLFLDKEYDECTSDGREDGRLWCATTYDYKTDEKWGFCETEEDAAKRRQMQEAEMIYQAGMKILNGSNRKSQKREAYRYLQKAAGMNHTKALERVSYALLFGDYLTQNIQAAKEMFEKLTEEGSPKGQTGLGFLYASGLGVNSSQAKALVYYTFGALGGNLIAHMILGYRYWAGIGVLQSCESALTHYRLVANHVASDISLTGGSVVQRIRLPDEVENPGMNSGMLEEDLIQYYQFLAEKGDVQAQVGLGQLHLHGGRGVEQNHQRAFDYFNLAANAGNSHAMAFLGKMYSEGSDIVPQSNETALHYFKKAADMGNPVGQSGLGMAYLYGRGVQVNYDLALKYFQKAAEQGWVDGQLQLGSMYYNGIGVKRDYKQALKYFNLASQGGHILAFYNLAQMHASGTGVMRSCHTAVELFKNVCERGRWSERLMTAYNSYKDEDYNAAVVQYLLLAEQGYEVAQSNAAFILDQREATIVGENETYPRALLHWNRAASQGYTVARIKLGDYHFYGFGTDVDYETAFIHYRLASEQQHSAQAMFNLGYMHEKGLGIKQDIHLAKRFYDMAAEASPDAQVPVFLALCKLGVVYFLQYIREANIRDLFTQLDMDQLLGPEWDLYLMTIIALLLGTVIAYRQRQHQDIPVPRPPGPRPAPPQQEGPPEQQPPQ

Experiments:
[1] = target: T1, Herp (mouse (endogenous in liver and pancreas)) (UniProt Q9JJK5); assay: co-IP; digitonin-solubilized liver microsomes of WT, 3KO and HKO mice injected with PBS (control) or tunicamycin 24 h before; antibodies against Herp, Derlin-1, Derlin-2 or HRD1, Protein A-Sepharose, 4 °C; lysis buffer 50 mM Tris-HCl, 150 mM NaCl, 1% digitonin, pH 7.5; Western blot
T1 sequence: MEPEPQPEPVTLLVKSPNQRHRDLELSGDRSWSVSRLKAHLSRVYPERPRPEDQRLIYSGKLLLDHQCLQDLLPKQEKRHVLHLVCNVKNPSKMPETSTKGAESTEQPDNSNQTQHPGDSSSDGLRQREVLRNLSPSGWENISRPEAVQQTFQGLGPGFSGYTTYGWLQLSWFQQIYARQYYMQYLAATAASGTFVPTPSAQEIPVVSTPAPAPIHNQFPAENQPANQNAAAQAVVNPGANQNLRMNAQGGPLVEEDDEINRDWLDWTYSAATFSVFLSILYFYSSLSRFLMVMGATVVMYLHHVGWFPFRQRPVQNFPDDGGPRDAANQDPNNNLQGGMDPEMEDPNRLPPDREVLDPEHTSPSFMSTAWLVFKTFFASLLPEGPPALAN

[2] = target: T1, Herp (mouse (endogenous in liver and pancreas)); assay: co-IP; heavy fractions (18-22) of a 0.15-1 M sucrose density gradient of liver microsomes of tunicamycin-treated WT mice; anti-Herp or anti-Derlin-1 antibodies; Western blot
[3] = target: T2, Derlin-2 (mouse (endogenous in liver and pancreas)) (UniProt Q8BNI4); assay: co-IP; sequential co-IP from digitonin-solubilized liver microsomes of WT mice (PBS or tunicamycin): first anti-Herp or anti-Derlin-1, eluted with 200 µg/mL immunogen peptide, second anti-Derlin-2; Western blot
T2 sequence: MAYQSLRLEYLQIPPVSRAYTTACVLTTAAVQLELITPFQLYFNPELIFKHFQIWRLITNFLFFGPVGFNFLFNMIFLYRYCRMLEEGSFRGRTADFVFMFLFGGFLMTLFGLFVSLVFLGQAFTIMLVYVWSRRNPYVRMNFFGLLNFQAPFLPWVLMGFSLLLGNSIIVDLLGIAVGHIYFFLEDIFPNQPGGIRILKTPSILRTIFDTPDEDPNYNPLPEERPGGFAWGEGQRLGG

[4] = target: T1, Herp (mouse (endogenous in liver and pancreas)); assay: as above
[5] = target: T2, Derlin-2 (mouse (endogenous in liver and pancreas)); assay: co-IP; digitonin-solubilized liver microsomes of WT, 3KO and HKO mice injected with PBS (control) or tunicamycin 24 h before; antibodies against Herp, Derlin-1, Derlin-2 or HRD1, Protein A-Sepharose, 4 °C; lysis buffer 50 mM Tris-HCl, 150 mM NaCl, 1% digitonin, pH 7.5; Western blot
[6] = target: FLAG-tagged Herp and HA-tagged Herp (UniProt Q9JJK5); assay: co-IP; FLAG-tagged Herp and HA-tagged Herp co-expressed, reciprocal co-IP; data not shown
[7] = target: HRD1 (mouse (endogenous in liver)) (UniProt Q9DBY1); assay: co-IP; digitonin-solubilized liver microsomes of WT, 3KO and HKO mice injected with PBS (control) or tunicamycin 24 h before; antibodies against Herp, Derlin-1, Derlin-2 or HRD1, Protein A-Sepharose, 4 °C; lysis buffer 50 mM Tris-HCl, 150 mM NaCl, 1% digitonin, pH 7.5; Western blot
[8] = target: T2, Derlin-2 (mouse (endogenous in liver and pancreas)); assay: as above; remark: listed apart in the source
[9] = target: T1, Herp (mouse (endogenous in liver and pancreas)); assay: as above; remark: listed apart in the source
[10] = target: T1, Herp (mouse (endogenous in liver and pancreas)); assay: co-IP; light fractions (8-12) of a 0.15-1 M sucrose density gradient of liver microsomes of tunicamycin-treated WT mice; anti-Herp or anti-Derlin-1 antibodies; Western blot
[11] = target: T1, Herp (mouse (endogenous in liver and pancreas)); assay: co-IP; digitonin-solubilized pancreas microsomes of WT mice, normal conditions; anti-Herp or anti-Derlin-1 antibodies; Western blot
[12] = target: T3, Derlin-1 (mouse (endogenous in liver and pancreas)) (UniProt Q99J56); assay: co-IP; digitonin-solubilized pancreas microsomes of Derlin-3-deficient (3KO) mice, normal conditions; anti-Herp or anti-Derlin-1 antibodies; Western blot
T3 sequence: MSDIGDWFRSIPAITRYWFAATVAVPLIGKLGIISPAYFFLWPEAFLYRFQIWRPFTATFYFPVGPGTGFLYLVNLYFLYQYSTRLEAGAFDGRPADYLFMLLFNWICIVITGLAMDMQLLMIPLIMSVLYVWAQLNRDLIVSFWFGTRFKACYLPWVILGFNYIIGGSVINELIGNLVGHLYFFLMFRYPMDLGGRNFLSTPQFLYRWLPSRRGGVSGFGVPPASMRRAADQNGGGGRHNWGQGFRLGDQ

[13] = target: T1, Herp (mouse (endogenous in liver and pancreas)); assay: as above
[14] = target: T3, Derlin-1 (mouse (endogenous in liver and pancreas)); assay: co-IP; digitonin-solubilized liver microsomes of WT, 3KO and HKO mice injected with PBS (control) or tunicamycin 24 h before; antibodies against Herp, Derlin-1, Derlin-2 or HRD1, Protein A-Sepharose, 4 °C; lysis buffer 50 mM Tris-HCl, 150 mM NaCl, 1% digitonin, pH 7.5; Western blot
[15] = target: T3, Derlin-1 (mouse (endogenous in liver and pancreas)); assay: co-IP; heavy fractions (18-22) of a 0.15-1 M sucrose density gradient of liver microsomes of tunicamycin-treated WT mice; anti-Herp or anti-Derlin-1 antibodies; Western blot
[16] = target: T3, Derlin-1 (mouse (endogenous in liver and pancreas)); assay: co-IP; sequential co-IP from digitonin-solubilized liver microsomes of WT mice (PBS or tunicamycin): first anti-Herp or anti-Derlin-1, eluted with 200 µg/mL immunogen peptide, second anti-Derlin-2; Western blot
[17] = target: T3, Derlin-1 (mouse (endogenous in liver and pancreas)); assay: co-IP; light fractions (8-12) of a 0.15-1 M sucrose density gradient of liver microsomes of tunicamycin-treated WT mice; anti-Herp or anti-Derlin-1 antibodies; Western blot
[18] = target: T3, Derlin-1 (mouse (endogenous in liver and pancreas)); assay: co-IP; digitonin-solubilized pancreas microsomes of WT mice, normal conditions; anti-Herp or anti-Derlin-1 antibodies; Western blot

Molecule: HRD1 (from UniProt Q9DBY1 1-612)
- binding [1]: binds
- binding [2]: binds
- binding [3]: binds
- binding [4]: binds

Molecule: p97 (from UniProt Q01853 1-806)
- binding [5]: binds
- binding [3]: binds

Molecule: SEL1L (from UniProt Q9Z2G6 22-790)
- binding [1]: binds

B1: FLAG-tagged Herp and HA-tagged Herp (protein, UniProt Q9JJK5 1-391)
chain: T1 sequence
- binding [6]: binds

B3: Derlin-1 (protein, UniProt Q99J56 1-251)
chain: T3 sequence
- binding [8]: binds

B4: VIMP (protein, UniProt Q9BCZ4 1-190)
chain: MDRDEEPLSARPALETESLRFLHVTVGSLLASYGWYILFSCILLYIVIQRLSLRLRALRQRQLDQAETVLEPDVVVKRQEALAAARLRMQEDLNAQVEKHKEKLRQLEEEKRRQKIEMWDSMQEGRSYKRNSGRPQEEDGPGPSTSSVIPKGKSDKKPLRGGGYNPLTGEGGGTCSWRPGRRGPSSGGUN
- binding [8]: binds
- binding [3]: binds

The next lines start with the values.

- binding [7]: binds
B2: Herp (protein, UniProt Q9JJK5 1-391)
chain: T1 sequence

- binding [9]: binds
- binding [2]: binds
- binding [10]: binds
- binding [11]: binds
B5: Derlin-3 (protein, UniProt Q9D8K3 1-228)
chain: MAGQRLAAGFLQVPAVTRAYTAACVLTTAAVQLELLSPFQLYFNPHLVFRKFQVWRLITTFLFFGPLGFGFFFNMLFVFRYCRMLEEGSFRGRKADFVFMFLFGGVLMTLLGFLGSLFFLGQALMAMLVYVWSRRSPHVRVNFFGLLNFQAPFLPWALMGFSLLLGNSVVTDLLGILVGHIYYFLEDVFPNQPGGKRLLLTPSVLKLLLDDPQEDPDYLPLPEEQPEL

- binding [12]: binds
- binding [13]: binds
- binding [14]: binds
- binding [9]: binds
- binding [7]: binds
- binding [15]: binds
- binding [2]: binds weakly
- binding [16]: binds
- binding [4]: binds
- binding [17]: binds
- binding [10]: binds weakly
- binding [18]: binds
B6: Derlin-2 (protein, UniProt Q8BNI4 1-239)
chain: T2 sequence
